# Assay results as given in PubChem BioAssay AID2685 (National Center for Advancing Translational Sciences (NCATS), 2010).
# Hit rate of the full screen: of about 320,000 compounds, about 2,100 (0.66%) were called active. Inconclusive means that the source gave no clear call. Such entries were picked first, then a sample of the others. The call rests on the fitted dose curve; in most records, active means well fitted inhibition curve with a large enough effect in the signal ratio, with a control signal flat (not every such curve was filed as active); inconclusive means small, poorly fitted or top-dose-only effect, or effect the other way, or a change in a side signal; inactive means flat fitted curve, though single readings scatter; the % refers to the signal ratio. A potency beside an inconclusive call is a rough fit, not a confirmed value.
# Assay: qHTS Assay for Lipid Storage Modulators in Drosophila S3 Cells
# Details: BODIPY lipid droplet fluorescence, 18-24 h, cells fed with added oleic acid; lipid storage change, negative = inhibition: at 46.1 µM (top of the series) unless noted
# How it was run: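 Laser-scanning cytometry quantifies lipid droplet accumulation (500–530 nm total intensity; droplet/cell object ratio) in oleic acid-fed (400 uM added) Drosophila S3 cells treated with a concentration series. 20 uM Triacsin C defined 100% inhibition.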
# On the % scale 0 is the no-effect control and ±100 the full control effect; potency means the concentration at half of the fitted maximal effect.
SMILES,"lipid storage change, negative = inhibition",Potency,outcome
CCOC(=O)C1=NOC(COc2ccccc2C=O)C1 (centres undefined),inconclusive: 9.29%,–,–
CCOC(=O)C1CCCN(C(=O)c2ccc(C(=O)c3ccccc3)cc2)C1 (centres undefined),–,"inconclusive: 4.11 µM [cytotoxic, single point]",–
Cc1ccc(NC2CCCN(C(=O)c3cccnc3)C2)cc1C (centres undefined),–,"inconclusive: 29.1 µM [activator, single point]",–
Cc1ccc(S(=O)(=O)N2c3ccccc3NC(=O)C2CC(=O)Nc2ccccc2)cc1 (centres undefined),inconclusive: 8.41%,–,–
COc1cccc(-c2ccc3ncnc(NCc4cccc(C)c4)c3c2)c1,inconclusive: 39.6%,–,–
COCc1nnc(NC(=O)c2cc(C(=O)OC)cc([N+](=O)[O-])c2)s1,inconclusive: 7%,–,–
O=C(Oc1ccccc1)c1cc2ccccc2o1,inconclusive: 5.86%,–,–
COc1ccc(NC(=O)/C(C#N)=C/c2ncc([N+](=O)[O-])n2C)c(OC)c1,inconclusive: 17.9%,–,–
O=C(Nc1cccc(S(=O)(=O)N2CCCCC2)c1)c1cc([N+](=O)[O-])ccc1N1CCOCC1,inconclusive: 30.6% [activator],–,–
Cc1ccc(-n2ccnc2SCC(=O)O)cc1C,inconclusive: -0.646%,–,–
COC(=O)c1ccncc1C(=O)Nc1ccc(OC)cc1,inconclusive: 2.35%,–,–
O=C(COc1ccc(Cl)cc1)N/N=C/c1cccc2cccnc12,inconclusive: -45.6%,–,–
CCOC(=O)c1cc(-c2ccc(OC(F)F)cc2)nc2c1c(=O)[nH]c(=O)n2C,inconclusive: 182%,–,–
CCn1c(CNc2nc3ccccc3n2C(C)C)nc2ccccc21,inconclusive: 49.5%,–,–
CCOC(=O)c1ccc(Nc2ncnc3ccc(C)cc23)cc1,inconclusive: -3.06%,–,–
O=C(CN1CCN(C(=O)C2CCCO2)CC1)Nc1ccc(Cl)c(Cl)c1 (centres undefined),–,"inconclusive: 0.58 µM [activator, single point]",–
O=C(Nc1ccnn1C1CCN(C(=O)Cc2cccc(Cl)c2)CC1)C1CC1,–,"inconclusive: 0.58 µM [falling, single point]",–
CC1CC(C)CN(C(=O)C2CCN(S(=O)(=O)c3cccc4cccnc34)CC2)C1 (centres undefined),–,"inconclusive: 29.1 µM [activator, single point]",–
CCN(CC)S(=O)(=O)c1cccc(-c2nnc(-c3ccc(C)cc3)o2)c1,inconclusive: -38.7%,–,–
CCCCCC1CC(=O)N(Cc2ccc(Cl)cc2)C(=O)N1 (centres undefined),inconclusive: -3.91%,–,–
COc1ccc(N2C(=O)CC(n3c(CCCCO)nc4ccccc43)C2=O)cc1 (centres undefined),–,"inconclusive: 16.4 µM [activator, single point]",–
COCC1CCN(Cc2nc(-c3cccs3)no2)C1 (centres undefined),inconclusive: -28.5%,–,–
O=C(COc1ccccc1Br)c1ccc2c(c1)OCO2,inconclusive: -7.91%,–,–
COc1ccc(-c2c(C#Cc3ccccc3)c3ccccc3n2C)cc1,inconclusive: 42.8%,–,–
O=C1C(c2ccc(F)cc2)N(Cc2ccc3c(c2)OCO3)C(=O)CN1C1CCCC1 (centres undefined),inconclusive: 25.8%,–,–

SMILES,"lipid storage change, negative = inhibition",Potency,outcome
O=C(CCC(=O)N1CCN(S(=O)(=O)c2ccc(Cl)cc2)CC1)Nc1ccc2ccccc2c1,–,"inconclusive: 7.31 µM [activator, partial curve, poor fit]",–
CN(CC(=O)NCCN1CCN(c2ccccc2)CC1)S(=O)(=O)c1ccc2c(c1)CCC(=O)N2,inconclusive: -3.61%,–,–
Cc1ccc(C(=O)NC(C)(COc2nonc2C)COc2nonc2C)cc1,–,"inconclusive: 2.59 µM [activator, partial curve, poor fit]",–
CCOc1ccc(-n2nnnc2SCC(=O)NC2CCCC2)cc1,–,"inconclusive: 0.0046 µM [activator, full curve, poor fit]",–
CC(=O)c1c(C)[nH]c(C(=O)N2CCN(S(=O)(=O)c3ccc(C)cc3C)CC2)c1C,inconclusive: -55.8%,–,–
Cc1[nH]c(=O)[nH]c(=O)c1S(=O)(=O)N1CCN(c2cccc(Cl)c2)CC1,inconclusive: -7.21%,–,–
CC1=NN(C(=O)Cc2ccc(C)cc2)C(O)(c2cccnc2)C1 (centres undefined),–,"inconclusive: 0.58 µM [activator, full curve, poor fit]",–
N#Cc1cc2c([nH]c1=S)CCCCCC2,inconclusive: 26.5%,–,–
Cc1ccc(NS(=O)(=O)c2cc(C(=O)N3CCN(C)CC3)ccc2C)cc1,inconclusive: 11.8%,–,–
CCCN1C(=O)c2ccc(C(=O)Nc3ccc4c(c3)OCO4)cc2C1=O,inconclusive: 1.1%,–,–
COc1ccccc1NC(=O)CSc1nnc(COc2ccc(Cl)cc2)o1,–,"inconclusive: 0.58 µM [falling, partial curve, poor fit]",–
CC1=NOC(=O)/C1=C\c1ccc(-c2cc(Cl)ccc2Cl)o1,inconclusive: -28.9%,–,–
CCN(CC)c1cc(C)c2cc(NC(=O)c3ccc(Br)o3)ccc2n1,–,"inconclusive: 5.8 µM [falling, full curve, poor fit]",–
COc1ccc(NC(=O)Cc2ccsc2)cc1S(=O)(=O)N1CCCCC1,inconclusive: -3.57%,–,–
CS(=O)(=O)N1CCC(C(=O)Nc2ccc(Cl)c(C(F)(F)F)c2)CC1,–,–,inactive [at 46.1 µM]
C[C@]12C=CC(=O)C=C1CC[C@@H]1C2C(O)C[C@@]2(C)C1CC[C@]2(O)C(=O)COC(=O)CCC(=O)NC(CC(=O)O)C(=O)O (some centres undefined),inconclusive: -6.06%,–,–
Cc1ccc(C)c(Cn2nnc3c(=O)[nH]c(C4CCCN(C(=O)C5CCC5)C4)nc32)c1 (centres undefined),inconclusive: 0.562%,–,–
CSc1cccc(NC(=O)Cn2cnc(S(=O)(=O)N3CCCC3)c2)c1,–,"inconclusive: 0.0058 µM [falling, full curve, poor fit]",–
CC(C)Cc1nnc(NC(=O)CCC(=O)N2CCN(c3ccc(Cl)cc3)CC2)s1,inconclusive: 35.7%,–,–
CCOC(=O)C1CCCN(C(=O)c2cc3c(OC)c(OC)c(OC)cc3[nH]2)C1 (centres undefined),inconclusive: -34.6%,–,–
COc1cc(CNCCc2ccc(F)cc2)ccc1OCc1ccc(Cl)nc1,–,"inconclusive: 4.61 µM [activator, single point]",–
CC(=O)N1c2ccc(Cl)cc2C2C=CCC2C1c1cccc2ccccc12 (centres undefined),inconclusive: -51.7%,–,–
O=C(COC(=O)c1ccc(Br)o1)NCCNC(=O)COC(=O)c1ccc(Br)o1,inconclusive: 16.2%,–,–
COC(=O)c1ccc(CSc2nc3ccccc3c(=O)n2-c2cccc(OC)c2)o1,–,"inconclusive: 0.146 µM [rising, partial curve, poor fit]",–
c1ccc(Nc2nc(Nc3ccccc3)nc(N3CCNCC3)n2)cc1,–,"inconclusive: 6.51 µM [activator, single point]",–

# Of the compounds above, these contain a furan ring, fused or not.
SMILES,"lipid storage change, negative = inhibition",Potency,outcome
O=C(Oc1ccccc1)c1cc2ccccc2o1,inconclusive: 5.86%,–,–
CC1=NOC(=O)/C1=C\c1ccc(-c2cc(Cl)ccc2Cl)o1,inconclusive: -28.9%,–,–
CCN(CC)c1cc(C)c2cc(NC(=O)c3ccc(Br)o3)ccc2n1,–,"inconclusive: 5.8 µM [falling, full curve, poor fit]",–
O=C(COC(=O)c1ccc(Br)o1)NCCNC(=O)COC(=O)c1ccc(Br)o1,inconclusive: 16.2%,–,–
COC(=O)c1ccc(CSc2nc3ccccc3c(=O)n2-c2cccc(OC)c2)o1,–,"inconclusive: 0.146 µM [rising, partial curve, poor fit]",–

# (cont.)

SMILES,"lipid storage change, negative = inhibition",Potency,outcome
CCOC(=O)NC(=O)CSc1ccccn1,inconclusive: 22.8%,–,–
CCOC(=O)c1c(C)nc(-c2ccccc2)nc1NC(C)=O,–,"inconclusive: 29.1 µM [activator, single point]",–
CC1=NCCN1S(=O)(=O)c1cccc([N+](=O)[O-])c1,inconclusive: -19.2%,–,–
Cc1cc(=O)oc2c(C)c(OC(C)C(=O)NCC(O)c3ccccc3)ccc12 (centres undefined),inconclusive: 80.3%,–,–
CN(c1ccccc1)S(=O)(=O)c1ccc(NC(=S)NC(=O)C2CC2)cc1,–,"inconclusive: 18.4 µM [activator, single point]",–
CC(C)(C)c1nnc2sc(SCC(=O)NCc3ccco3)nn2c1=O,inconclusive: 11.7%,–,–
CCn1c(COc2cccc(OC)c2)nnc1SCC(=O)NC1CCCC1,–,"inconclusive: 0.116 µM [activator, full curve, poor fit]",–
COc1cccc(N/C(SCc2cccc([N+](=O)[O-])c2)=C(/C#N)C(=O)NCc2cccs2)c1,–,"inconclusive: 6.51 µM [activator, partial curve]",–
O=C(COC(=O)c1cc(S(=O)(=O)N2CCOCC2)ccc1Cl)Nc1ccccc1Cl,inconclusive: 12.8%,–,–
COc1ccc(CCNC(=O)C2CCN(C(=O)c3ccc(Br)cc3)CC2)cc1OC,inconclusive: -22%,–,–
Cc1ccc(C(=O)N/N=C/C=C/c2ccccc2)cc1,inconclusive: -13.1% [at 9.22 µM],–,–
COc1ccc(CCNC(=O)CC(NS(=O)(=O)c2ccc(NC(C)=O)cc2)C(C)C)cc1OC (centres undefined),inconclusive: 24.3%,–,–
CC(C)(C)Cc1nnc(NC(=O)c2ccco2)s1,inconclusive: 1.63%,–,–
COCCCNC(=O)COc1ccc(Br)cc1Cl,–,"inconclusive: 18.4 µM [falling, single point]",–
COc1ccccc1C1/C(=C(\O)c2ccc3c(c2)OCCO3)C(=O)C(=O)N1Cc1cccnc1 (centres undefined),inconclusive: -18.3%,–,–
CCOc1ccc(CNC(=O)C2CCN(c3nn4c(=O)cc(C)nc4s3)CC2)cc1,–,"inconclusive: 5.8 µM [activator, full curve]",–
COc1ccccc1N1C(=O)CC(N2CCN(c3ccc(Cl)cc3)CC2)C1=O (centres undefined),inconclusive: -53.9%,–,–
Cc1ccc2nc(NC(=O)CN3C(=O)NC4(CCCC4)C3=O)sc2c1,inconclusive,–,–
O=C(CSCc1ccccc1)Nc1ccccc1C(=O)Nc1ccc(C(=O)O)cc1,inconclusive: -3.34%,–,–
COc1cc(CC(CC(=O)O)CC(C)OCc2ccccc2)cc(OC)c1 (centres undefined),–,"inconclusive: 18.4 µM [activator, partial curve]",–
COc1cc(CNC(=O)OCC(C)C)cc(OC)c1OC,inconclusive: -17.5%,–,–
Cc1nc2sc(C(c3cccs3)N3CCN(C(=O)c4ccco4)CC3)c(O)n2n1 (centres undefined),inconclusive: 80.5%,–,–
O=C(CN1C(=O)S/C(=C\c2ccccc2)C1=O)Nc1cc([N+](=O)[O-])ccc1O,inconclusive: 1.37%,–,–
CCOCCCNC(=O)C(NC(=O)c1ccc2c(c1)OCO2)c1ccc(Cl)cc1 (centres undefined),inconclusive: -14.1%,–,–
